Results published in PubChem BioAssay AID493014 (National Center for Advancing Translational Sciences (NCATS), 2011).
The campaign covered roughly 340,000 compounds. About 170 (0.05%) were called active. Calls come from the whole dose curve; as a rule, active = well fitted inhibition curve with a large enough effect in the signal ratio, with a control signal flat (not every such curve was filed as active); inconclusive = small, poorly fitted or top-dose-only effect, or effect the other way, or a change in a side signal; inactive = flat fitted curve, though single readings scatter; the % refers to the signal ratio. The inconclusive results got no clear call from the source.

Assay: qHTS Assay to Find Inhibitors of Chronic Active B-Cell Receptor Signaling;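 note: plate controls were basal doxycycline-induced cells for no effect and cells given 10 µM MG132 for full effect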
Conditions: ABC-DLBCL IkBa-CBG/CBR reporter, luminescence ratio (green luciferase fused to IkBa over red control in TMD8 lymphoma cells), 4 h; activity change, negative = inhibition: at 46.1 µM (top of the series)
How it was run: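 TMD8 ABC-DLBCL cells carrying doxycycline-inducible green luciferase fused to IkappaBalpha plus unfused red luciferase were exposed to compounds (up to 46 uM) for 4 hrs at 37C. Activity came from the overlap-corrected green/red luminescence ratio.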

Structure (SMILES)	activity change, negative = inhibition
Cc1c(CC(=O)O)c(=O)oc2c(C)c3occ(-c4ccc(Br)cc4)c3cc12	inconclusive: 5.27%
COc1cc(/C=C2\C(=N)N3N=C(S(C)(=O)=O)SC3=NC2=O)ccc1OCCOc1ccccc1C	inconclusive: 3.16%
